Laboratory results from article PMC8617943.
These are yes or no findings as the source states them, for the method shown. Binding seen in cells or lysates may run through a third protein. Some results given as binding are weak or reduced against the parent protein; the word gives no strength.

Chains of the proteins cited; added tags and fusions are not shown.
UniProt P10415: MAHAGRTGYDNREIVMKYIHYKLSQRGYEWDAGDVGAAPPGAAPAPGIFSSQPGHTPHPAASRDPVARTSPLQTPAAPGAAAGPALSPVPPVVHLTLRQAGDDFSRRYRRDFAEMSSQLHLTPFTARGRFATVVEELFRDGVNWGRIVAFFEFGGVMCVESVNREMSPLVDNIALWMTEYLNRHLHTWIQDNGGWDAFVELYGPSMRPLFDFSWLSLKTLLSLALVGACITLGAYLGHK
UniProt Q9NT62: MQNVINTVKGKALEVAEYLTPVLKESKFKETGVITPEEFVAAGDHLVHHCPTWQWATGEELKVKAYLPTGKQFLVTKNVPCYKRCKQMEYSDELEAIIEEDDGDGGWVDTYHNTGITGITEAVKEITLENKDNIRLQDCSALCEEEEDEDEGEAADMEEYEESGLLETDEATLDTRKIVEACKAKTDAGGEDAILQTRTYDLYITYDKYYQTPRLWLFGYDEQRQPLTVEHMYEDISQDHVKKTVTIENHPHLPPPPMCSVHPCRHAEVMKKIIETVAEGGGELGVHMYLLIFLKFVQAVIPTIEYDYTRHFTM
UniProt O94817: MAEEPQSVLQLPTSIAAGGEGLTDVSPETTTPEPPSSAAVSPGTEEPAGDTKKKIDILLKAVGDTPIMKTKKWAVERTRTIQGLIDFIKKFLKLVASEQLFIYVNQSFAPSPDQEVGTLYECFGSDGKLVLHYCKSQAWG
UniProt Q676U5: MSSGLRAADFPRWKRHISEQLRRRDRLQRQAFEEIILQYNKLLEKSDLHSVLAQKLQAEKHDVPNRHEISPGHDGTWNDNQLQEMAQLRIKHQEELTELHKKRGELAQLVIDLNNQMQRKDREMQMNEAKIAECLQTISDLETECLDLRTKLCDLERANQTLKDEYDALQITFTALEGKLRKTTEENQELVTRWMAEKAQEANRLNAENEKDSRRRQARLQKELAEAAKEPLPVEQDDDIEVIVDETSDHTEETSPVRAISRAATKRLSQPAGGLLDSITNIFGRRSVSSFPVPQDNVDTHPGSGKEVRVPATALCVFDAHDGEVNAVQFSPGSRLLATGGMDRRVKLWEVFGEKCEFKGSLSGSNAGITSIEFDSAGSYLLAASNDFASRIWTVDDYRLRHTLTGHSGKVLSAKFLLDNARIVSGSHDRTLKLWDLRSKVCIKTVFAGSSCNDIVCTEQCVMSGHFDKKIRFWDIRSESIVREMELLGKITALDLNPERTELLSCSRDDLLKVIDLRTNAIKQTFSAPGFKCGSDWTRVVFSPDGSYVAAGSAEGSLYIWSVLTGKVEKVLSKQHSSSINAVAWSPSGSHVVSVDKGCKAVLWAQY
UniProt P09429: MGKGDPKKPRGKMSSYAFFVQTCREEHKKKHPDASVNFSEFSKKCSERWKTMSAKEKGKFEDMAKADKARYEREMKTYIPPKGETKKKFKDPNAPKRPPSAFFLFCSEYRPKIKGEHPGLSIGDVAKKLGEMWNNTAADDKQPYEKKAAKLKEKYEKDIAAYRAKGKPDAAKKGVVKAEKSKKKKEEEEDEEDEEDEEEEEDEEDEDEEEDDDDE

How the values were obtained:
[1] = molecular target: Beclin 1 (human (endogenous in Ca Ski)) (UniProt Q14457); assay: co-IP; endogenous proteins in Ca Ski whole cell lysates precleared with Protein A/G PLUS-Agarose; IP with anti-Bcl-2 or anti-Beclin 1 monoclonal antibody or control rabbit IgG, 2 h at room temperature, captured on protein A/G agarose, western blot; cells untreated or treated with RCE-4 8 μmol/L for 6, 12 and 24 h, with or without ATG 4B siRNA
[2] = molecular target: Bcl-2 (human (endogenous in Ca Ski)) (UniProt P10415); assay: as above

binding [1]	binding [2]	Substance
binds	–	ATG 3 (from UniProt Q9NT62 1-314)
binds	binds	ATG 12 (from UniProt O94817 1-140)
–	binds	ATG 14 (from UniProt Q6ZNE5 1-492)
binds	binds	ATG 16L1 (from UniProt Q676U5 1-607)
binds	–	Bcl-2 (from UniProt P10415 1-239)
–	binds	Beclin 1 (from UniProt Q14457 1-450)
binds	–	HMGB-1 (from UniProt P09429 1-215)
